Experimental findings from paper PMC5748981 are described below.

For assay [1], the target named is T1, GFP-Ldo16 expressed from a NOP1 promoter (S. cerevisiae), P40219.
T1 chain: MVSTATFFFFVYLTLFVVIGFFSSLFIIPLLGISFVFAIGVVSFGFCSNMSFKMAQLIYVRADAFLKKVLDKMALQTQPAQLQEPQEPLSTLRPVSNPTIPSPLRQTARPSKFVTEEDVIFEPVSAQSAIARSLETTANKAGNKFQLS
Nature of the assay: co-IP; GFP-trap from lysates with 1% digitonin, 4°C; elution with 0.2 M glycine pH 2.5; SDS-PAGE and Western blot with antibodies against Sei1 and Ldb16. Particulars: remark: other sources report otherwise.

The target in assay [2] is T2, GFP-Ldo16 expressed from a NOP1 promoter (S. cerevisiae) (UniProt P40219).
T2 sequence: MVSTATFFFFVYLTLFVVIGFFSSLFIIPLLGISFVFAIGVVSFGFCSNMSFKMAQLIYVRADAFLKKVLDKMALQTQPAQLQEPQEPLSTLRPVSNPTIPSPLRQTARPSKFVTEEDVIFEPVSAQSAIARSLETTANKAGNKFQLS
The description is as above.

No constants are given. Whether binding was seen depends on the method and setting. In cells and extracts the contact can be indirect. Some results given as binding are weak or reduced against the parent protein; the word gives no strength. Where a sequence is shown, tags or fusion partners need not be part of it.

B1: Sei1, Q06058 1-285 (protein)
chain: MKINVSRPLQFLQWSSYIVVAFLIQLLIILPLSILIYHDFYLRLLPADSSNVVPLNTFNILNGVQFGTKFFQSIKSIPVGTDLPQTIDNGLSQLIPMRDNMEYKLDLNLQLYCQSKTDHLNLDNLLIDVYRGPGPLLGAPGGSNSKDEKIFHTSRPIVCLALTDSMSPQEIEQLGPSRLDVYDEEWLNTIRIEDKISLESSYETISVFLKTEIAQRNLIIHPESGIKFRMNFEQGLRNLMLRKRFLSYIIGISIFHCIICVLFFITGCTAFIFVRKGQEKSKKHS
With B1, the binding entry in assay [1] was “binds”.

B2: Ldb16 (protein, UniProt P25587 1-256)
chain: MFVVDWSVQLCMGVISPLFRALVQLPLSIFVWNGFQLVALPINIPLRLFLGTSLSRLVAQTSTLDFYVVLTLFQYFAVLCAFGSIIGLIFGFILGVFHSICGVPSVYISLEWKRWFAPIRTVLERASTSIVNIMRGQTIAPIPMPKPNPTHISKPNMKKFHDEPGADDMTITHDVNCYITPCQTPTNEKIQHYNNDSFNTTTTDDEPTDIWDRSDTYQNSFVTNETLMSLSNRAKLRRNASDADIVNIKILRRNSR
For B2, the binding entry in assay [2] is given as “binds”.
